# Measurements from the supplement of paper PMC8728848.
# The other results are listed elsewhere or left out.
# What was measured:
# Experiment in all cases: glycan array binding signal (z-score within array); higher = stronger binding
# Details in all cases: glycan notation: IUPAC condensed, linker removed
# [1] = target: Neu5Ac(a2-6)Gal(b1-4)GlcNAc(b1-6)GalNAc
# How it was run: (§1)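 Glycan array data were curated from 3228 arrays in the Consortium for Functional Glycomics database and kept only where the protein sequence was available. Glycan names were converted to IUPAC-condensed notation, and columns mapping to the same glycan were averaged. The binding signal is a within-array Z-score, averaged across arrays of the same protein sequence at different concentrations or buffers and across linkers. Negative Z-scores can be read as non-binding.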
# [2] = target: Neu5Ac(a2-6)Gal(b1-4)GlcNAc(b1-6)[Gal(b1-3)GlcNAc(b1-3)]Gal(b1-4)Glc
# How it was run: as §1
# [3] = target: Neu5Ac(a2-6)Gal(b1-4)GlcNAc(b1-6)[Gal(b1-3)]GalNAc
# How it was run: as §1
# [4] = target: Neu5Ac(a2-6)Gal(b1-4)GlcNAc6S
# How it was run: as §1
# [5] = target: Neu5Ac(a2-6)GalNAc
# How it was run: as §1
# [6] = target: Neu5Ac(a2-6)GalNAc(b1-4)GlcNAc
# How it was run: as §1
# [7] = target: Neu5Ac(a2-6)GalNAc(b1-4)GlcNAc6S
# How it was run: as §1
# [8] = target: Neu5Ac(a2-6)GlcNAc(b1-4)GlcNAc
# How it was run: as §1
# [9] = target: Neu5Ac(a2-6)GlcNAc(b1-4)GlcNAc(b1-4)GlcNAc
# How it was run: as §1
# [10] = target: Neu5Ac(a2-8)Neu5Ac
# How it was run: as §1
# [11] = target: Neu5Ac(a2-8)Neu5Ac(a2-3)Gal(b1-3)GalNAc(b1-4)[Neu5Ac(a2-3)]Gal(b1-4)Glc
# How it was run: as §1
# [12] = target: Neu5Ac(a2-8)Neu5Ac(a2-3)Gal(b1-3)GalNAc(b1-4)[Neu5Ac(a2-8)Neu5Ac(a2-3)]Gal(b1-4)Glc
# How it was run: as §1
# [13] = target: Neu5Ac(a2-8)Neu5Ac(a2-3)Gal(b1-4)Glc
# How it was run: as §1
# [14] = target: Neu5Ac(a2-8)Neu5Ac(a2-3)Gal(b1-4)GlcNAc
# How it was run: as §1
# [15] = target: Neu5Ac(a2-8)Neu5Ac(a2-3)[Gal(b1-3)GalNAc(b1-4)]Gal(b1-4)Glc
# How it was run: as §1
# [16] = target: Neu5Ac(a2-8)Neu5Ac(a2-3)[GalNAc(b1-4)]Gal(b1-4)Glc
# How it was run: as §1
# [17] = target: Neu5Ac(a2-8)Neu5Ac(a2-8)Neu5Ac
# How it was run: as §1
# [18] = target: Neu5Ac(a2-8)Neu5Ac(a2-8)Neu5Ac(a2-3)Gal(b1-4)Glc
# How it was run: as §1
# [19] = target: Neu5Ac(a2-8)Neu5Ac(a2-8)Neu5Ac(a2-3)[Gal(b1-3)GalNAc(b1-4)]Gal(b1-4)Glc
# How it was run: as §1
# [20] = target: Neu5Ac(a2-8)Neu5Ac(a2-8)Neu5Ac(a2-3)[GalNAc(b1-4)]Gal(b1-4)Glc
# How it was run: as §1
# [21] = target: Neu5Ac(a2-8)Neu5Ac(a2-8)Neu5Ac(a2-8)Neu5Ac(a2-3)[GalNAc(b1-4)]Gal(b1-4)Glc
# How it was run: as §1
# [22] = target: Neu5Ac(a2-8)Neu5Gc(a2-3)Gal(b1-4)GlcNAc
# How it was run: as §1
# [23] = target: Neu5Ac(b2-6)Gal(b1-4)GlcNAc
# How it was run: as §1
# [24] = target: Neu5Ac(b2-6)GalNAc
# How it was run: as §1
# [25] = target: Neu5Ac9Ac(a2-3)Gal(b1-3)GlcNAc
# How it was run: as §1
# [26] = target: Neu5Ac9Ac(a2-3)Gal(b1-4)GlcNAc
# How it was run: as §1
# [27] = target: Neu5Ac9Ac(a2-6)Gal(b1-4)GlcNAc
# How it was run: as §1
# [28] = target: Neu5Gc(a2-3)Gal(b1-3)GlcNAc
# How it was run: as §1
# [29] = target: Neu5Gc(a2-3)Gal(b1-3)[Fuc(a1-4)]GlcNAc
# How it was run: as §1
# [30] = target: Neu5Gc(a2-3)Gal(b1-4)Glc
# How it was run: as §1
# [31] = target: Neu5Gc(a2-3)Gal(b1-4)GlcNAc
# How it was run: as §1
# [32] = target: Neu5Gc(a2-3)Gal(b1-4)GlcNAc(b1-3)Gal(b1-4)GlcNAc(b1-2)Man(a1-3)[Neu5Gc(a2-3)Gal(b1-4)GlcNAc(b1-3)Gal(b1-4)GlcNAc(b1-2)Man(a1-6)]Man(b1-4)GlcNAc(b1-4)GlcNAc
# How it was run: as §1
# [33] = target: Neu5Gc(a2-3)Gal(b1-4)[Fuc(a1-3)]GlcNAc
# How it was run: as §1
# [34] = target: Neu5Gc(a2-6)Gal(b1-4)GlcNAc
# How it was run: as §1
# [35] = target: Neu5Gc(a2-6)GalNAc
# How it was run: as §1
# [36] = target: Neu5Gc(a2-8)Neu5Ac(a2-3)Gal(b1-4)GlcNAc
# How it was run: as §1
# [37] = target: Neu5Gc(a2-8)Neu5Gc(a2-3)Gal(b1-4)GlcNAc
# How it was run: as §1
# [38] = target: Neu5Gc(a2-8)Neu5Gc(a2-3)Gal(b1-4)GlcNAc(b1-3)Gal(b1-4)GlcNAc
# How it was run: as §1
binder,measurement,setting,value
Vd7LysM (Verticillium dahliae) (protein) RRGPEPKYPPAAGTSSYCSYWVDYEGDKSCSRVLEDNVVVLKDFARWNPTVGADCSGIKAGNSYCVEAFGEPEPIEVTTTTRAATTTTQPTATTTTFANGIATPQPTQSGMVTNCNKFHWIAEGVSCSQVISFQKITLADFVKWNPSVKSDCSGMWAGVNVCVGVVGSSTDTAKPTTTAPSNGVVTPQPTQPSMVTNCNKFHWIAKGVTCQQVISYQKISLADFVKWNPSVLSDCSGMWAEVQVCVGVIGSTPTTLATTTTTAGNGVSTPLPTQPGMVTNCAKFHWVAKGVTCNQIYSFQKITLEQFVSYNPTVKSDCSGMQAEVQVCVGLIAGTTPTTTRPPTTTAPGNGVSTPQPTQPGMVTNCAKFHWVAKGVTCNQIYSFQKITLEQFVSFNPTVKSDCTGMQAEVNVCVGLIGGNPTPTQTGNGIATPTPIQPGMVSNCKKFHWIAQGVTCQQVISFQKITLADFVKWNTGVGSDCRTMWAETNVCVGV,glycan array binding signal (z-score),[1],-2.3
same,glycan array binding signal (z-score),[2],0.829
same,glycan array binding signal (z-score),[3],-0.467
same,glycan array binding signal (z-score),[4],0.8
same,glycan array binding signal (z-score),[5],0.058
same,glycan array binding signal (z-score),[6],-2.02
same,glycan array binding signal (z-score),[7],-1.51
same,glycan array binding signal (z-score),[8],-0.836
same,glycan array binding signal (z-score),[9],-0.474
same,glycan array binding signal (z-score),[10],-0.418
same,glycan array binding signal (z-score),[11],-2.4
same,glycan array binding signal (z-score),[12],0.555
same,glycan array binding signal (z-score),[13],0.175
same,glycan array binding signal (z-score),[14],0.115
same,glycan array binding signal (z-score),[15],-0.882
same,glycan array binding signal (z-score),[16],1.03
same,glycan array binding signal (z-score),[17],-0.119
same,glycan array binding signal (z-score),[18],0.063
same,glycan array binding signal (z-score),[19],0.545
same,glycan array binding signal (z-score),[20],-0.713
same,glycan array binding signal (z-score),[21],1.24
same,glycan array binding signal (z-score),[22],1.69
same,glycan array binding signal (z-score),[23],-1.15
same,glycan array binding signal (z-score),[24],-0.577
same,glycan array binding signal (z-score),[25],-0.552
same,glycan array binding signal (z-score),[26],-0.139
same,glycan array binding signal (z-score),[27],2.97
same,glycan array binding signal (z-score),[28],0.641
same,glycan array binding signal (z-score),[29],-1.44
same,glycan array binding signal (z-score),[30],0.212
same,glycan array binding signal (z-score),[31],0.306
same,glycan array binding signal (z-score),[32],-1.03
same,glycan array binding signal (z-score),[33],0.377
same,glycan array binding signal (z-score),[34],0.889
same,glycan array binding signal (z-score),[35],-0.119
same,glycan array binding signal (z-score),[36],-0.354
same,glycan array binding signal (z-score),[37],0.075
same,glycan array binding signal (z-score),[38],-0.709

# Random excerpt: 2 entries already listed
binder,measurement,setting,value
Vd7LysM (Verticillium dahliae) (protein) RRGPEPKYPPAAGTSSYCSYWVDYEGDKSCSRVLEDNVVVLKDFARWNPTVGADCSGIKAGNSYCVEAFGEPEPIEVTTTTRAATTTTQPTATTTTFANGIATPQPTQSGMVTNCNKFHWIAEGVSCSQVISFQKITLADFVKWNPSVKSDCSGMWAGVNVCVGVVGSSTDTAKPTTTAPSNGVVTPQPTQPSMVTNCNKFHWIAKGVTCQQVISYQKISLADFVKWNPSVLSDCSGMWAEVQVCVGVIGSTPTTLATTTTTAGNGVSTPLPTQPGMVTNCAKFHWVAKGVTCNQIYSFQKITLEQFVSYNPTVKSDCSGMQAEVQVCVGLIAGTTPTTTRPPTTTAPGNGVSTPQPTQPGMVTNCAKFHWVAKGVTCNQIYSFQKITLEQFVSFNPTVKSDCTGMQAEVNVCVGLIGGNPTPTQTGNGIATPTPIQPGMVSNCKKFHWIAQGVTCQQVISFQKITLADFVKWNTGVGSDCRTMWAETNVCVGV,glycan array binding signal (z-score),[7],-1.51
same,glycan array binding signal (z-score),[24],-0.577
